The whole screen tested about 340,000 compounds, of which about 170 (0.05%) were called active. The inconclusive results got no clear call from the source; some entries with a clear call stand among them for comparison. Calls come from the whole dose curve; as a rule, active = well fitted inhibition curve with a large enough effect in the signal ratio, with a control signal flat (not every such curve was filed as active); inconclusive = small, poorly fitted or top-dose-only effect, or effect the other way, or a change in a side signal; inactive = flat fitted curve, though single readings scatter; the % refers to the signal ratio. Potencies beside an inconclusive call are fits to weak or partial responses and may not hold up.
assay: qHTS Assay to Find Inhibitors of Chronic Active B-Cell Receptor Signaling; settings: ABC-DLBCL IkBa-CBG/CBR reporter, luminescence ratio (green luciferase fused to IkBa over red control in TMD8 lymphoma cells), 4 h; activity change, negative = inhibition: at 46.1 µM (top of the series);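 for activity change, negative = inhibition: plate controls were basal doxycycline-induced cells for no effect and cells given 10 µM MG132 for full effect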
In short: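 TMD8 ABC-DLBCL cells carrying doxycycline-inducible green luciferase fused to IkappaBalpha plus unfused red luciferase were exposed to compounds (up to 46 uM) for 4 hrs at 37C. Activity came from the overlap-corrected green/red luminescence ratio.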
Potency is the fitted concentration of half-maximal effect.

SMILES	activity change, negative = inhibition	Potency
Cc1cc(Cl)ccc1NC(=O)CN1CCN(C(=O)c2ccco2)CC1	inconclusive: 1.62%	–
Cc1cccc(NC(=O)c2cccc(S(=O)(=O)N3CCc4ccccc4C3)c2)n1	inconclusive: -4.27%	–
CCOC(=O)Cc1csc(NC(=O)c2csc(C)c2)n1	–	inconclusive: 18.4 µM [falling, single point]
C[C@H](NC(=O)C1CCN(S(=O)(=O)c2ccccc2)CC1)C(=O)NCc1cccc(Cl)c1	inactive	–
O=C(Cc1ccc(F)cc1)c1ccc(O)cc1O	inconclusive: 8.59%	–
Cc1ccc(-n2c(C)cc(=O)cc2C)c(C)c1	inconclusive: -0.0732%	–
COc1cccc(C=Nc2cccc3c(=O)[nH][nH]c(=O)c23)c1O	inconclusive: 0.143%	–
COc1ccc(Cl)cc1NC(=O)CN(C)C(=O)Cn1cnnn1	inactive	–
Cc1ccccc1C(=O)NNC(=O)c1ccc(F)cc1	–	inconclusive: 11.2 µM [falling, partial curve]
CCOc1ccc(NC(=O)c2cccc(-n3cccc3)c2)cc1S(=O)(=O)N1CCOCC1	inconclusive: 8.89%	–
CC1CCC(C(C)C)C(=O)/C1=C/c1ccc(N)cc1 (stereo not given)	inactive	–
COc1cc(NC(=S)NCCC(c2ccccc2)c2ccccc2)c(OC)cc1Cl	inconclusive: 26.2%	–
Cc1sc2nc(C(C)C)nc(SCC(=O)N3c4ccccc4CC3C)c2c1C (stereo not given)	inconclusive: 1.31%	–
Cc1nn(Cc2ccccc2)c2c1C(c1ccncc1)C(C#N)=C(N)O2 (stereo not given)	inconclusive: -8.86%	–
ON=C1c2ccccc2-c2ccccc21	inconclusive: -2.41%	–
COc1ccc(C(=O)NN=C(Cc2ccccc2)Cc2ccccc2)cc1OC	–	inconclusive: 16.4 µM [falling, partial curve, poor fit]
COCCNC(=O)c1ccc(-n2c(SCc3ccncc3)nc3ccccc3c2=O)cc1	–	inconclusive: 1.58 µM [falling, partial curve, poor fit]
Cc1ccc(S(=O)(=O)NCCC(=O)NNC(=O)c2ccccc2Cl)cc1C	–	inconclusive: 23.1 µM [falling, single point]
Cc1ccc(S(=O)(=O)Nc2c(NC3CCCCC3)c3ccccc3oc2=O)cc1	inconclusive: 1.05%	–
COc1cccc(C(=O)N[C@@H](CCSC)c2nc3ccccc3[nH]2)c1	–	inconclusive: 11.2 µM [falling, partial curve, poor fit]
CC(C)c1ccc(NC(=O)C2CC2c2ccccc2)cc1 (stereo not given)	inconclusive: 9.84%	–
O=C1NC(=Nc2ccccc2Cl)S/C1=C\c1cc([N+](=O)[O-])ccc1O	inconclusive: 11.6%	–
COc1cc(C2NC(=O)NC(C)=C2C(=O)OCc2ccc(C)cc2)cc(OC)c1O (stereo not given)	–	inconclusive: 12.6 µM [falling, partial curve, poor fit]
Cc1ccc(CNC(=O)CCS(=O)(=O)c2ccc(Br)s2)cc1	inconclusive: 0.783%	–
COc1ccc(-c2ccc(SCC(=O)c3cccs3)nn2)cc1	inconclusive: -16%	–
COc1cc2c(cc1OC)CN(c1ccc(F)cc1[N+](=O)[O-])CC2	inconclusive: 2.33%	–
C[C@H](CO)N1C[C@H](C)[C@@H](CN(C)Cc2ccccc2)Oc2c(NS(=O)(=O)c3cn(C)cn3)cccc2C1=O	inconclusive: -0.948%	–

SMILES	activity change, negative = inhibition	Potency
COC(=O)CSc1nnc(-c2ccc3c(c2)OCO3)n1C	inactive	–
CCOC(=O)/C=C1\SCC(=O)N1Cc1nnc(-c2ccccc2Br)o1	–	inconclusive: 9.2 µM [falling, partial curve]
CCn1ncc(Br)c1C(=O)Nc1sc2c(c1C(N)=O)CCC2	inconclusive: 9.42%	–
COCCn1c(COc2ccc(C)cc2)nc2ccccc21	–	inconclusive: 15.8 µM [rising, partial curve, poor fit]
O=C(CNC(=O)c1cnccc1C(F)(F)F)c1cccc(Cl)c1	–	inconclusive: 10 µM [falling, partial curve]
COc1ccc(N2CSC3=C(C#N)C(c4cccc(OC)c4OC)CC(=O)N3C2)cc1 (stereo not given)	inconclusive: -0.467%	–
COCCOC(=O)c1c(C)n(C)c2ccc(OC(=O)c3ccccc3F)cc12	inconclusive: 5.06%	–
Cc1ccc(C)c(C(=O)N(Cc2nc(-c3ccc(Cl)cc3)no2)C(C)C)c1	inconclusive: 10.6%	–
COc1ccc(-c2cc(=O)oc3cc(OC(C)C(=O)O)ccc23)cc1 (stereo not given)	inactive	–
O=C(Nc1cnn(Cc2ccc(Cl)cc2Cl)c1)c1noc2c1CCCC2	inconclusive: 17.5%	–
COc1ccc(C2SCC(=O)N2c2c(C)n(C)n(-c3ccccc3)c2=O)c(OC)c1 (stereo not given)	inconclusive: -11.7%	–
COc1ccc(NC(=O)c2ccco2)cc1NC(=O)c1cc2ccccc2o1	inconclusive: -0.945%	–
CNC(=O)COC(=O)c1ccccc1C(=O)c1ccc(Cl)c([N+](=O)[O-])c1	inconclusive: 3.25%	–
CCOC(=O)c1sc(NC(=O)CSc2n[nH]c(C)n2)nc1C	–	inconclusive: 22.4 µM [falling, single point]
COC(=O)c1cc(OC)c(OC)cc1NC(=O)c1ccco1	inconclusive: 5.95%	–
CSc1cccc(NC(=O)C2CC(=O)N(Cc3ccccc3)C2)c1 (stereo not given)	inactive	–
CCN1CCN(c2ncc3c(n2)CC(c2ccc(OC)c(OC)c2)CC3=O)CC1 (stereo not given)	inactive	–
COc1ccccc1CCNC(=O)CNC(=O)c1ccc2ccccc2c1	–	inconclusive: 11.2 µM [falling, partial curve, poor fit]
CC(C)n1c(N2CCN(C(=O)Nc3ccc(Cl)cc3)CC2)nc2ccccc21	inconclusive: 8.49%	–
CCn1nccc1C(=O)Nc1ccc(S(=O)(=O)NC23CC4CC(CC(C4)C2)C3)cc1	inconclusive: 11%	–
CC(=O)c1ccc(Oc2ncnc3sccc23)c(CN2CCOCC2)c1	inconclusive: 7.94%	–
COc1ccc(NC(=O)c2noc3c2CCCCC3)cc1	–	inconclusive: 35.5 µM [falling, single point]
CCN(CC)C(=O)c1ncn(Cc2ccccc2)c1C(=O)N(CC)CC	inactive	–
COc1ccc(OCC(=O)Nc2cccc3ncccc23)cc1	–	inconclusive: 18.4 µM [falling, single point]
COC(=O)c1ccc(CNC(=O)Cn2cnc3c(SC)nc(N)nc32)cc1	inactive	–
Cc1ccc(N(C(=O)C2CCCC2)C2C=CS(=O)(=O)C2)cc1C (stereo not given)	inconclusive: 4.19%	–
CCCCc1c(CCC)c(=N)c2ccccc2n1C	inconclusive: 0.46%	–

Complete entries as entered above:
`COc1ccccc1CCNC(=O)CNC(=O)c1ccc2ccccc2c1` is listed with Potency: inconclusive: 11.2 µM [falling, partial curve, poor fit]
`COc1ccc(OCC(=O)Nc2cccc3ncccc23)cc1` is listed with Potency: inconclusive: 18.4 µM [falling, single point]
`CCN(CC)C(=O)c1ncn(Cc2ccccc2)c1C(=O)N(CC)CC` is listed with activity change, negative = inhibition: inactive
`COc1ccc(C2SCC(=O)N2c2c(C)n(C)n(-c3ccccc3)c2=O)c(OC)c1` (stereo not given) is listed with activity change, negative = inhibition: inconclusive: -11.7%

(next part)

SMILES	activity change, negative = inhibition	Potency
NC(=O)CSc1ncc(-c2ccccc2)[nH]1	inconclusive: 5.51%	–
COc1ccc(C(=O)NNC(=O)C(=O)Nc2ccc(C)cc2)cc1	–	inconclusive: 15.8 µM [falling, partial curve, poor fit]
Cc1ccccc1C(=O)N1CCC(C(=O)N(CC(C)C)c2c(N)n(Cc3ccccc3)c(=O)[nH]c2=O)CC1	inconclusive: 1.11%	–
COc1cccc2sc(Nc3nnc(-c4ccc(F)cc4)o3)nc12	–	inconclusive: 1.84 µM [rising, full curve, poor fit]
CC1(C)Cc2c(sc(NC(=O)C3CC(Cl)=CCC3C(=O)O)c2C#N)CO1 (stereo not given)	inconclusive: 0.505%	–
O=c1c(Br)c(NCc2ccccc2)cnn1-c1ccc(F)cc1	inconclusive: -1.8%	–
CC1(C)Cc2c(sc3nc(-c4ccccc4Cl)n(N)c(=O)c23)CO1	–	inconclusive: 29.1 µM [falling, single point]
COc1cc(C(=O)NCCCN2CCCC2=O)cc(OC)c1OC	inconclusive: -9.88%	–
COc1cccc2cc(C(C)N(CCCN3CCOCC3)C(=S)Nc3ccc(C)cc3)oc12 (stereo not given)	inconclusive: 6.87%	–
Nc1nc2n(n1)C(c1ccccc1)CC(c1ccc(F)cc1)N2 (stereo not given)	inconclusive: 4.46%	–
O=C(N/N=C/c1cn(-c2ccccc2)nc1-c1ccc2c(c1)OCCO2)c1ccncc1	inconclusive: 10.5%	–
CCOC(=O)C1=C(N)N2C(=O)C(C)SC2=C(C(=O)OCC)C1c1ccc(O)cc1 (stereo not given)	inactive	–
Cc1cccc(OCC(=O)N=Nc2c(O)[nH]c3ccc([N+](=O)[O-])cc23)c1	inconclusive: 25.7%	–
CC1CCc2nn(CC(=O)NCCC3=CCCCC3)cc2C1 (stereo not given)	inactive	–
O=C(CCC(=O)Nc1ccccc1Cl)NNS(=O)(=O)c1ccc(Cl)cc1	inconclusive: -8.59%	–
COc1ccc(-c2cc(C(=O)Nc3ccc4c(c3)OCO4)no2)cc1	inconclusive: -21.2%	–
COC(=O)c1ccc(CS(=O)(=O)c2ccc(C)cc2)cc1	inconclusive: -4.16%	–
S=C(NCc1ccccc1)Nc1nccs1	inactive	–
CS(=O)(=O)c1ccc(NCCc2ccccn2)c([N+](=O)[O-])c1	inactive	–
CCOC(=O)c1cc(-c2ccccc2)n(CC(=O)Nc2cccc(OC)c2)c1C	inconclusive: 2.47%	–
CS(=O)(=O)c1ccc2nc(NC(=O)CN3CCN(Cc4ccccc4)CC3)sc2c1	–	inconclusive: 3.26 µM [falling, partial curve, poor fit]
CCCCCc1ccc(-c2ccc(OC)cc2)nc1	–	inconclusive: 15.8 µM [rising, single point]
CCCC1C(=O)Nc2ccccc2N1C(=O)c1cccc(C)c1 (stereo not given)	inactive	–
COc1cccc(C(=O)N2N=C(c3ccccc3)CC2(O)C(F)(F)F)c1 (stereo not given)	inconclusive: -19.3%	–
CC1CCc2c(sc(NC(=O)CN3CCN(C(=O)c4ccco4)CC3)c2C#N)C1 (stereo not given)	inconclusive: -5.74%	–
COC(=O)C1C(c2ccc(OC)c(OC)c2)NC(c2ccc(OC)c(OC)c2)C(C(=O)OC)S1(=O)=O (stereo not given)	–	inconclusive: 32.6 µM [falling, single point]
